Laboratory results from patent US9376694B2, “Method for preparing optically active amino acid using cosubstrate shuttling of transaminase” (INDUSTRY-ACADEMIC COOPERATION FOUNDATION, YONSEI UNIVERSITY, priority 2012, dated 2016).
At least one compound was matched to its structure with a doubt left.

Assays:
Type in all cases: biochemical
[1] = system: ω-transaminase derived from Ochrobactrum anthropi; assay: Substrate specificity of purified ω-transaminase for keto acids, OawTA; conditions: 20 mM keto acid, 20 mM (S)-α-methylbenzylamine, pH 7.0, 37° C., 6 hours
Procedure: (§1) Reaction was conducted using the ω-transaminase purified in Example 3 and using various keto acids and amine as substrates as described in [Table 6]. After adding 10 μL of the purified enzyme (6 U/mL) to 100 μL of a mixture of 20 mM keto acid, 20 mM (S)-α-methylbenzylamine and 50 mM potassium phosphate (pH 7.0), reaction was conducted at 37° C. for 6 hours and the amount of produced acetophenone (deaminated ketone of (S)-α-methylbenzylamine) was measured. The result was compared with that of the ω-transaminase derived from Ochrobactrum anthropi. The result is shown in [Table 6].

[2] = system: ω-transaminase derived from Ochrobactrum anthropi; assay: Substrate specificity of purified ω-transaminase for keto acids in initial stage of reaction, OawTA; set-up: unit not given here; conditions: 20 mM keto acid, 20 mM (S)-α-methylbenzylamine, pH 7.0, 37° C., 10 minutes
Procedure: as §1, with “7].” for “6].”, “(1” for “(6”, “10 minutes” for “6 hours”

[3] = system: ω-transaminase derived from Paracoccus denitrificans (PdwTA); assay: Substrate specificity of purified ω-transaminase for keto acids in initial stage of reaction, PdwTA; set-up: unit not given here; conditions: purified enzyme (1 U/mL); 20 mM keto acid, 20 mM (S)-α-methylbenzylamine, pH 7.0, 37° C., 10 minutes
Procedure: as §1, with “7].” for “6].”, “(1” for “(6”, “10 minutes” for “6 hours”

| Compound | Concentration of acetophenone, OawTA [1] [mM] | amount of produced acetophenone, OawTA [2] | amount of produced acetophenone, PdwTA [3] |
| --- | --- | --- | --- |
| CC(=O)C(=O)O [Pyruvate] | 4.84 | 1.284 | – |
| O=C(O)C(=O)CBr [Bromopyruvate] | – | 0.010 | −0.001 |
